Laboratory results: patent publication US20220396614A1
No constants are given. Whether binding was seen depends on the method and setting. Some binding calls cover weakened binding; strength is not graded here.

Assays:
[1] = target: T1, KQPA peptide (…), PfCSP N-terminal junction aa 95-109 (Plasmodium falciparum (NF54)); test: SPR (FIG. 5H)
T1 sequence (peptide): KQPADGNPDPNANPN

[2] = target: NANP 5.5-mer peptide, NP(NANP)5, representative of the PfCSP central repeat (Plasmodium falciparum (NF54)); test: SPR (FIG. 5H)
[3] = target: T2, NPDP peptide (…), PfCSP N-terminal junction aa 101-116 (Plasmodium falciparum (NF54)); test: SPR (FIG. 5H)
T2 sequence (peptide): NPDPNANPNVDPNANP

[4] = target: T1, KQPA peptide (…), PfCSP N-terminal junction aa 95-109 (Plasmodium falciparum (NF54)); test: SPR, KD on a log axis
[5] = target: NANP 5.5-mer peptide, NP(NANP)5, representative of the PfCSP central repeat (Plasmodium falciparum (NF54)); test: SPR, KD on a log axis
[6] = target: T2, NPDP peptide (…), PfCSP N-terminal junction aa 101-116 (Plasmodium falciparum (NF54)); test: SPR, KD on a log axis

Measured: binding

B1: monoclonal antibody 2541 (antibody, V domains shown)
VH: QVQLVESGGGVVQPGRSLRLSCAASGFTFSSYGMHWVRQTTGKGLEWVAIIWHDGSKKYYADSVKGRLTISRDNSKNTLYLQMNSLRVEDTALYYCARVGDYSDFKYGAFDIWGQGTMVTVSS
VL: DIQMTQSPSTLSASVGDRVTITCRASQSISSWLAWYQQKPGKAPNLLIYKASTLESGVPSRFSGSGSGTEFTLTISSLQPDDFATYYCQQYNSYWTFGQGTRVEIK
binds: all assays above
